# Reference: article PMC4132902
# Results are given in words; binding and its absence hold for the method and conditions named. Binding seen in cells or lysates may run through a third protein. Some results given as binding are weak or reduced against the parent protein; the word gives no strength.
# T1: arrestin domain containing 3 (ARRDC3) (mouse (endogenous in hippocampus of Tg6799 and littermate mice)) (UniProt Q7TPQ9)
# T1 sequence: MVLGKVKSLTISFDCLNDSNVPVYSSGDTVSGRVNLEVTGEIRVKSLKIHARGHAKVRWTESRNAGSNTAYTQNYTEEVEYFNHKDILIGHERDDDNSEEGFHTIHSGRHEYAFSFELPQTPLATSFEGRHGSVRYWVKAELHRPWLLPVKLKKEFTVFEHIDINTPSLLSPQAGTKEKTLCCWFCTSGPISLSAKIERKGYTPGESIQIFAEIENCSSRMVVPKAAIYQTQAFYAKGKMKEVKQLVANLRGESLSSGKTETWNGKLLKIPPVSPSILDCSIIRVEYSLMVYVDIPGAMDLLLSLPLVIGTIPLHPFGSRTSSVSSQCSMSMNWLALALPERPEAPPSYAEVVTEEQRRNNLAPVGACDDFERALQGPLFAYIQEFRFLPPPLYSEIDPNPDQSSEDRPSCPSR
# Biological target: T1, arrestin domain containing 3 (ARRDC3) (mouse (endogenous in hippocampus of Tg6799 and littermate mice))
# Assay: co-IP; hippocampus protein samples (10 ug) of Tg6799 (MT) mice and littermate (LM) controls at 10 months of age; precipitated with polyclonal anti-ARRDC3 at 4°C overnight and protein A agarose, blotted with polyclonal anti-Sfpq; homogenization buffer 50 mM Tris-Cl pH 8.0, 150 mM NaCl, 5 mM EDTA, 1% Triton X-100
binder,measurement,value
"splicing factor, proline- and glutamine-rich (Sfpq) (protein, UniProt Q8VIJ6 1-699) MSRDRFRSRGGGGGGFHRRGGGGGRGGLHDFRSPPPGMGLNQNRGPMGPGPGGPKPPLPPPPPHQQQQQPPPQQPPPQQPPPHQQPPPHQPPHQQPPPPPQESKPVVPQGPGSAPGVSSAPPPAVSAPPANPPTTGAPPGPGPTPTPPPAVPSTAPGPPPPSTPSSGVSTTPPQTGGPPPPPAGGAGPGPKPGPGPGGPKGGKMPGGPKPGGGPGMGAPGGHPKPPHRGGGEPRGGRQHHAPYHQQHHQGPPPGGPGPRTEEKISDSEGFKANLSLLRRPGEKTYTQRCRLFVGNLPADITEDEFKRLFAKYGEPGEVFINKGKGFGFIKLESRALAEIAKAELDDTPMRGRQLRVRFATHAAALSVRNLSPYVSNELLEEAFSQFGPIERAVVIVDDRGRSTGKGIVEFASKPAARKAFERCSEGVFLLTTTPRPVIVEPLEQLDDEDGLPEKLAQKNPMYQKERETPPRFAQHGTFEYEYSQRWKSLDEMEKQQREQVEKNMKDAKDKLESEMEDAYHEHQANLLRQDLMRRQEELRRMEELHSQEMQKRKEMQLRQEEERRRREEEMMIRQREMEEQMRRQREESYSRMGYMDPRERDMRMGGGGTMNMGDPYGSGGQKFPPLGGGGGIGYEANPGVPPATMSGSMMGSDMRTERFGQGGAGPVGGQGPRGMGPGTPAGYGRGREEYEGPNKKPRF",binding,binds
